Experimental data taken from PubChem BioAssay AID493014 (National Center for Advancing Translational Sciences (NCATS), 2011).
The other results are listed elsewhere or left out. Further columns of the screen follow, without active or inactive calls. The list favours compounds with an active or inconclusive main result. Words in brackets tell the shape of the fitted curve; partial curves, single points and poor fits give uncertain potencies.

Test: qHTS Assay to Find Inhibitors of Chronic Active B-Cell Receptor Signaling
Details: ABC-DLBCL IkBa-CBG/CBR reporter, luminescence ratio (green luciferase fused to IkBa over red control in TMD8 lymphoma cells), 4 h
Method in brief: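 TMD8 ABC-DLBCL cells carrying doxycycline-inducible green luciferase fused to IkappaBalpha plus unfused red luciferase were exposed to compounds (up to 46 uM) for 4 hrs at 37C. Activity came from the overlap-corrected green/red luminescence ratio.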

[1] = measured here: CBR red luminescence, cell number
[2] = measured here: IkBa-CBG green luminescence

Question: For N#C/C(=C/c1ccc(F)cc1)C(N)=S, which AC50 [1] is on record?
Answer: 7.08 µM [falling, partial curve]

Question: With Nc1nnc(-c2ccc(F)cc2)s1 as the compound, how does the AC50 [1] read?
Answer: 0.891 µM [falling, full curve]

Question: For O=c1[nH]c(C2CCN(S(=O)(=O)Cc3ccccc3)CC2)nc2c1nnn2Cc1ccccc1, which AC50 [2] is on record?
Answer: 12.6 µM [rising, partial curve, poor fit]

Question: For CC(C)Oc1ccc(-c2nc(NCC3CCCO3)c3ccccc3n2)cc1 (stereo unspecified), which AC50 [1] is on record?
Answer: 3.55 µM [rising, single point]

Question: With COc1ccc(S(=O)(=O)Nc2ccc3c(c2)C(=O)N([C@H](C)CO)C[C@H](C)[C@@H](CN(C)S(=O)(=O)c2ccccc2)O3)cc1 as the compound, how does the AC50 [1] read?
Answer: 10.3 µM [rising, partial curve]

Question: For Cc1ccc(-c2[nH]ncc2/C=C(\C#N)C(=O)NC2CCCCC2)cc1, which AC50 [1] is on record?
Answer: 35.5 µM [falling, single point]

Question: Which AC50 [1] does the source give for COc1ccc(/C=C(\CC(=O)O)c2nc3ccccc3s2)cc1O here?
Answer: 5.62 µM [falling, partial curve]

Question: With COc1ccc(/C=N/NC(=O)c2ccc(O)cc2O)cc1CSc1ccccn1 as the compound, how does the AC50 [1] read?
Answer: 9.2 µM [falling, partial curve]

Question: Which AC50 [1] does the source give for O=C(c1ccc(N2CCN(C3CC(=O)N(Cc4cccs4)C3=O)CC2)cc1)c1cccnc1 (stereo unspecified) here?
Answer: 35.5 µM [falling, single point]

Question: For CC(C)c1cc(CN2CCOCC2)cc(C(C)C)c1O, which AC50 [1] is on record?
Answer: 2.82 µM [rising, partial curve, poor fit]

Question: Which AC50 [1] does the source give for COc1cc(CC2COC(c3ccc(O)c(OC)c3)C2COC(C)=O)ccc1O (stereo unspecified) here?
Answer: 5.62 µM [rising, single point]

Question: Which AC50 [1] does the source give for Cc1cc(O)c(C(C)C)cc1N=Nc1ccccc1C(=O)O here?
Answer: 35.5 µM [falling, single point]

Question: For CCN(CC)S(=O)(=O)c1ccc(OCC(=O)NC(=O)Cc2ccccc2)c([N+](=O)[O-])c1, which AC50 [1] is on record?
Answer: 32.6 µM [rising, single point]

Question: Which AC50 [1] does the source give for O=C(NC(=S)N1CCN(C/C=C/c2ccccc2)CC1)c1cccnc1 here?
Answer: 35.5 µM [falling, single point]

Question: For Cn1c(COc2ccccc2)nc2ccccc21, which AC50 [1] is on record?
Answer: 3.55 µM [rising, full curve, poor fit]

Question: With Cc1ccc(C)c(NC(=O)CCc2ccc(S(=O)(=O)NC3CCCCC3)cc2)c1 as the compound, how does the AC50 [1] read?
Answer: 0.82 µM [falling, partial curve, poor fit]

Question: With Cc1cc(C)c2cc(C(=O)Nc3ccccc3)[nH]c2c1 as the compound, how does the AC50 [1] read?
Answer: 10 µM [falling, partial curve, poor fit]

Question: For OCCN1CCN(CC(O)COc2ccc(Cl)cc2)CC1 (stereo unspecified), which AC50 [1] is on record?
Answer: 10.3 µM [rising, single point]

Question: Which AC50 [2] does the source give for CCCCCCCCCCCCOC(=O)C[N+](C)(C)C here?
Answer: 35.5 µM [rising, partial curve, poor fit]

Question: Which AC50 [1] does the source give for COc1ccc(CCNC(=O)c2cccc(NC(=O)CC3SC(N4CCCCC4)=NC3=O)c2)cc1OC (stereo unspecified) here?
Answer: 14.1 µM [falling, partial curve, poor fit]

Question: With COc1ccc(NC(=O)N(CCN2CCCC2)Cc2cc3cc(OC)c(OC)cc3[nH]c2=O)cc1 as the compound, how does the AC50 [1] read?
Answer: 11.2 µM [rising, partial curve, poor fit]

Question: For Cc1c(Nc2scc(-c3ccccc3)[n+]2-c2ccccc2)c(=O)n(-c2ccccc2)n1C, which AC50 [1] is on record?
Answer: 17.8 µM [rising, single point]

Question: For CCc1cccc(CC)c1NC(=O)COC(=O)C1(C)CC1(Cl)Cl (stereo unspecified), which AC50 [1] is on record?
Answer: 35.5 µM [rising, single point]

Question: Which AC50 [1] does the source give for O=C(NC(=O)N1CCOCC1)c1ccccc1 here?
Answer: 32.6 µM [rising, single point]

Question: Which AC50 [1] does the source give for Cc1ccccc1C(=O)NC(=S)Nc1ncccn1 here?
Answer: 11.2 µM [falling, single point]

Question: For O=C(N/N=C/CCc1ccccc1)c1ccccc1, which AC50 [1] is on record?
Answer: 8.91 µM [falling, partial curve]

Question: With CCCC(=O)N=c1sc2c(OC)ccc(OC)c2n1C as the compound, how does the AC50 [1] read?
Answer: 0.112 µM [rising, full curve, poor fit]

Question: With Cc1c(C(=O)OCC(=O)Nc2ccc(S(N)(=O)=O)cc2)oc2c1ccc1ccccc12 as the compound, how does the AC50 [1] read?
Answer: 17.8 µM [rising, partial curve, poor fit]

Question: For O=C(Nc1cccc(S(=O)(=O)N2CCOCC2)c1)c1ccc2ccccc2n1, which AC50 [1] is on record?
Answer: 14.1 µM [falling, single point]

Question: Which AC50 [1] does the source give for CCC(CO)Oc1cc(NCc2ccccc2)c2ncn(C(C)C)c2c1 (stereo unspecified) here?
Answer: 16.4 µM [falling, partial curve, poor fit]

Question: Which AC50 [1] does the source give for CCOc1ccc(N2C(=O)CS/C2=N/NC(=O)COc2ccc3ccccc3c2)cc1 here?
Answer: 3.98 µM [rising, full curve]

Question: For Cc1ccc2sc(NC(=O)c3cccc(N4C(=O)CCC4=O)c3)nc2c1C, which AC50 [1] is on record?
Answer: 0.501 µM [falling, full curve, poor fit]

Question: With COc1ccccc1NC(=O)c1c(N=Cc2cccc([N+](=O)[O-])c2)cnn1C as the compound, how does the AC50 [1] read?
Answer: 3.55 µM [rising, full curve]

Question: With COc1ccc(NS(=O)(=O)c2cc(NC(=O)CCNC(C)=O)ccc2N2CCCCC2)cc1 as the compound, how does the AC50 [1] read?
Answer: 29.1 µM [rising, single point]

Question: With COc1ccc2c(c1)[C@H]1[C@H](CO2)[C@H](c2ccccc2)[C@]2(C)C(=O)Nc3ccccc3C(=O)N12 as the compound, how does the AC50 [1] read?
Answer: 6.51 µM [falling, partial curve]

Question: What about the AC50 [2] of the same compound?
Answer: 7.31 µM [rising, partial curve, poor fit]

Question: With Cc1ccc(Oc2ncc(CN3CCOCC3)s2)cc1 as the compound, how does the AC50 [1] read?
Answer: 22.4 µM [rising, single point]

Question: With COC(=O)c1cc(Br)ccc1-c1ccc(/C=N/n2nnnc2N)o1 as the compound, how does the AC50 [1] read?
Answer: 1.84 µM [falling, partial curve, poor fit]

Question: With CC1=C(C(=O)Nc2ccccn2)C(c2ccc(F)cc2)n2ncnc2N1 (stereo unspecified) as the compound, how does the AC50 [1] read?
Answer: 11.2 µM [falling, partial curve, poor fit]

Question: With CCOc1ccc(C(=O)NC(=S)Nc2ccc(N3CCC(C)CC3)cc2)cc1[N+](=O)[O-] as the compound, how does the AC50 [1] read?
Answer: 7.31 µM [rising, partial curve, poor fit]

Question: Which AC50 [1] does the source give for CC(=O)N/C(N)=N/c1nc2cc([N+](=O)[O-])ccc2o1 here?
Answer: 2.82 µM [rising, single point]

Question: With COc1cccc(NC(=O)Nc2ccc3c(c2)nc(C)n3C)c1 as the compound, how does the AC50 [1] read?
Answer: 7.08 µM [falling, partial curve]

Question: For O=C(CCc1nc(-c2ccccc2)no1)NCc1cccnc1, which AC50 [1] is on record?
Answer: 20.6 µM [rising, partial curve, poor fit]

Question: With Cc1cc(=O)[nH]c(N/N=C/c2ccc3c(c2)OCCO3)n1 as the compound, how does the AC50 [1] read?
Answer: 8.91 µM [falling, partial curve]

Question: With O=C1c2[nH]nc(-c3ccccc3O)c2C(c2ccc(F)cc2)N1CC1CCCO1 (stereo unspecified) as the compound, how does the AC50 [1] read?
Answer: 18.4 µM [falling, partial curve, poor fit]

Question: For CSC1=NCCN1S(=O)(=O)c1ccc(F)cc1, which AC50 [1] is on record?
Answer: 6.31 µM [falling, partial curve, poor fit]

Question: With N#CC1=C(N)n2c(s/c(=C\c3cccs3)c2=O)=C(C#N)C1c1cccs1 (stereo unspecified) as the compound, how does the AC50 [1] read?
Answer: 0.116 µM [falling, full curve, poor fit]

Question: For CCOc1ccc(S(=O)(=O)NCCC(=O)NCCc2ccc(OCC)c(OCC)c2)cc1, which AC50 [1] is on record?
Answer: 14.6 µM [rising, partial curve, poor fit]

Question: For COc1cc(/C=C2\N=C3CCCCCN3C2=O)ccc1O, which AC50 [1] is on record?
Answer: 4.61 µM [falling, full curve, poor fit]

Question: With Cc1ccccc1C(=O)N/N=C/c1ccc(OCC(=O)N2CCCCC2)cc1 as the compound, how does the AC50 [1] read?
Answer: 2.82 µM [falling, full curve]

Question: With CCOc1ccc(-c2nnn(CC(=O)Nc3cccc(OC)c3)n2)cc1OCC as the compound, how does the AC50 [2] read?
Answer: 20.6 µM [falling, single point]

Question: Which AC50 [1] does the source give for N#CC1=C(N)Oc2n[nH]c(-c3ccccn3)c2C1c1c(F)cccc1Cl (stereo unspecified) here?
Answer: 29.1 µM [falling, single point]

Question: With Cc1nc2ccc(NC(=O)CCS(=O)(=O)c3ccc(Cl)cc3)cc2s1 as the compound, how does the AC50 [1] read?
Answer: 6.51 µM [rising, single point]

Question: For Cc1nn(CCC(=O)O)c(C)c1C, which AC50 [1] is on record?
Answer: 29.1 µM [rising, single point]

Question: With O=C(NCc1ccccc1Cl)c1cccc(NC(=O)c2ccccc2)c1 as the compound, how does the AC50 [1] read?
Answer: 29.1 µM [falling, single point]

Question: Which AC50 [1] does the source give for COc1cnc(-c2ccccn2)nc1Sc1ccccc1 here?
Answer: 25.1 µM [falling, single point]

Question: With COC(=O)C(CC(=O)O)NCc1ccco1 (stereo unspecified) as the compound, how does the AC50 [1] read?
Answer: 12.6 µM [rising, single point]

Question: Which AC50 [1] does the source give for CSc1cccc(NC(=O)/C=C/c2ccc(Cl)cc2)c1 here?
Answer: 17.8 µM [falling, partial curve, poor fit]

Question: For COc1ccc(C(=O)CSc2nnc(-c3cccs3)n2-c2ccccc2)cc1, which AC50 [1] is on record?
Answer: 29.1 µM [rising, single point]

Question: Which AC50 [2] does the source give for CCOC(=O)/C(C#N)=C/c1cc2ccc(C)cc2nc1Cl here?
Answer: 29.1 µM [falling, single point]

Question: For Cc1ccc(NC(=O)c2ccco2)c([N+](=O)[O-])c1, which AC50 [1] is on record?
Answer: 3.16 µM [rising, partial curve]

Question: And the AC50 [2]?
Answer: 12.6 µM [falling, partial curve]

Question: With O=C(NC(=S)Nc1cccnc1Cl)c1ccc(F)cc1 as the compound, how does the AC50 [1] read?
Answer: 7.08 µM [falling, partial curve]

Question: With Cc1nonc1NC(=O)c1oc2ccc(F)cc2c1C as the compound, how does the AC50 [1] read?
Answer: 0.631 µM [rising, full curve, poor fit]

Question: Which AC50 [1] does the source give for Fc1ccc(NC(=S)Nc2ccc(F)c(Cl)c2)cc1Cl here?
Answer: 29.1 µM [falling, single point]

Question: With CCOc1cc(-c2nnc(SCC(=O)NCCCOC)nc2-c2ccc(OC)c(OCC)c2)ccc1OC as the compound, how does the AC50 [1] read?
Answer: 2.24 µM [rising, full curve, poor fit]
